PubChem BioAssay AID1259254 – NCATS – 2017

Purpose: 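Gene knock-downs that lead to re-replication, shown by excess G2 DNA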 (primary screen)
Cell system: human HCT116 colorectal cancer cells
Reagent: single siRNA against human genes
Timing: 3 days
Detection: 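Nuclei stained with Hoechst and imaged; cell-cycle phase assigned by DNA content; G2 share scaled per plate, non-targeting siRNA 0%, GMNN siRNA 100%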
Direction: G2 robust z-score and G2 cells, % of GMNN control: higher = more G2 cells, more excess DNA replication; raw share of cells in G2: higher = larger share of cells with G2 DNA content
Active means: 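Active siRNAs have a G2 robust z of 5 or more median absolute deviations over the median, which in these data means about 38% or higher of GMNN control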
This is one part, drawn at random, of about 59,000 deposited reagents. Over the whole deposit, about 1,550 (2.6%) are marked active. 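G2 share is only a proxy for re-replication; each gene was hit by three separate siRNAs, and active genes were retested.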 The raw values are shown without normalisation. Unmarked entries are inactive. Reagent sequences are not shown. Not given: the amount of reagent.

target gene | PubChem SID | G2 robust z-score | G2 cells, % of GMNN control | raw share of cells in G2 (%)
MICALL2 (MICAL like 2) | SID160734950 | 1.51 | 13.6 | 6.09
MICALL2 (MICAL like 2) | SID160749413 | 0.924 | 9.47 | 8.37
MICALL2 (MICAL like 2) | SID160749414 | 0.614 | 7.29 | 7.49
HM13 (histocompatibility minor 13) | SID160724577 | 0.336 | 5.33 | 6.23
HM13 (histocompatibility minor 13) | SID160724578 | -0.692 | -1.9 | 3.55
HM13 (histocompatibility minor 13) | SID160731967 | -0.527 | -0.739 | 5.29
RABGGTB (Rab geranylgeranyltransferase subunit beta) | SID160715565 | 3.74 | 29.3 | 15
RABGGTB (Rab geranylgeranyltransferase subunit beta) | SID160715566 | 4.85 | 37.1 | 18.8
RABGGTB (Rab geranylgeranyltransferase subunit beta) | SID160715567 | -0.204 | 1.53 | 4.66
OR5AU1 (olfactory receptor family 5 subfamily AU member 1) | SID160766524 | -0.719 | -2.09 | 3.06
OR5AU1 (olfactory receptor family 5 subfamily AU member 1) | SID160766525 | 2.06 | 17.5 | 11
OR5AU1 (olfactory receptor family 5 subfamily AU member 1) | SID160766526 | -0.603 | -1.28 | 4.09
CSF2RA (colony stimulating factor 2 receptor subunit alpha) | SID160749086 | -0.794 | -2.62 | 4.03
CSF2RA (colony stimulating factor 2 receptor subunit alpha) | SID160749096 | -0.0995 | 2.27 | 5.82
CSF2RA (colony stimulating factor 2 receptor subunit alpha) | SID160749107 | -1.01 | -4.14 | 2.67
ZNF735 (zinc finger protein 735) | SID160726858 | -0.993 | -4.02 | 2.02
ZNF735 (zinc finger protein 735) | SID160727448 | 3.68 | 28.9 | 15
ZNF735 (zinc finger protein 735) | SID160727449 | -0.0999 | 2.26 | 4.43
ZNF735 (zinc finger protein 735) | SID160734431 | -0.968 | -3.84 | 1.61
ZNF735 (zinc finger protein 735) | SID160734751 | -0.95 | -3.71 | 2.11
ZNF735 (zinc finger protein 735) | SID160772256 | -1.05 | -4.4 | 2.24
MEIS2 (Meis homeobox 2) | SID160777130 | 0.325 | 5.25 | 7.55
MEIS2 (Meis homeobox 2) | SID160777131 | -1.49 | -7.53 | 2.45
MEIS2 (Meis homeobox 2) | SID160777132 | 0.78 | 8.45 | 5.98
MIR4500HG (MIR4500 host gene) | SID160768586 | 8.58 (active) | 63.3 | 28.1
MIR4500HG (MIR4500 host gene) | SID160768587 | 1.27 | 11.9 | 7.92
MIR4500HG (MIR4500 host gene) | SID160768588 | 0.0798 | 3.53 | 4.32
TNRC18 (trinucleotide repeat containing 18) | SID160735106 | -0.935 | -3.61 | 1.31
TNRC18 (trinucleotide repeat containing 18) | SID160752475 | -1 | -4.07 | 2.76
TNRC18 (trinucleotide repeat containing 18) | SID160752476 | -0.703 | -1.98 | 2.87

A portion of the results above, as a working copy:
target gene | PubChem SID | G2 robust z-score | G2 cells, % of GMNN control | raw share of cells in G2 (%)
MICALL2 (MICAL like 2) | SID160749413 | 0.924 | 9.47 | 8.37
MICALL2 (MICAL like 2) | SID160749414 | 0.614 | 7.29 | 7.49
HM13 (histocompatibility minor 13) | SID160724577 | 0.336 | 5.33 | 6.23
HM13 (histocompatibility minor 13) | SID160724578 | -0.692 | -1.9 | 3.55
HM13 (histocompatibility minor 13) | SID160731967 | -0.527 | -0.739 | 5.29

Further records follow.
target gene | PubChem SID | G2 robust z-score | G2 cells, % of GMNN control | raw share of cells in G2 (%)
ARB2A (ARB2 cotranscriptional regulator A) | SID160751597 | -1.04 | -4.35 | 2.66
ARB2A (ARB2 cotranscriptional regulator A) | SID160751598 | -0.0724 | 2.46 | 4.19
ARB2A (ARB2 cotranscriptional regulator A) | SID160751599 | -0.0544 | 2.58 | 3.19
SKP2 (S-phase kinase associated protein 2) | SID160716771 | -0.132 | 2.04 | 6.28
SKP2 (S-phase kinase associated protein 2) | SID160716772 | -0.599 | -1.24 | 4.99
SKP2 (S-phase kinase associated protein 2) | SID160716773 | -0.834 | -2.9 | 3
EEF1A1P33 | SID160725257 | -0.462 | -0.284 | 3.28
EEF1A1P33 | SID160725258 | 0.652 | 7.55 | 7.87
EEF1A1P33 | SID160766497 | -0.782 | -2.53 | 2.9
USP49 (ubiquitin specific peptidase 49) | SID160737137 | 1.36 | 12.5 | 9.92
USP49 (ubiquitin specific peptidase 49) | SID160737138 | 0.896 | 9.27 | 8.19
USP49 (ubiquitin specific peptidase 49) | SID160737139 | 0.498 | 6.47 | 6.32
C1orf54 (chromosome 1 open reading frame 54) | SID160749038 | 0.938 | 9.57 | 8.75
C1orf54 (chromosome 1 open reading frame 54) | SID160749039 | 0.347 | 5.41 | 7.03
C1orf54 (chromosome 1 open reading frame 54) | SID160749040 | 2.06 | 17.5 | 7.31
FBXO25 (F-box protein 25) | SID160737853 | -0.279 | 1.01 | 4.79
FBXO25 (F-box protein 25) | SID160737854 | 0.101 | 3.68 | 5.53
FBXO25 (F-box protein 25) | SID160737855 | -0.674 | -1.77 | 2.68
GAS2L2 (growth arrest specific 2 like 2) | SID160761998 | 0.478 | 6.33 | 5.87
GAS2L2 (growth arrest specific 2 like 2) | SID160761999 | -0.568 | -1.03 | 2.78
GAS2L2 (growth arrest specific 2 like 2) | SID160762000 | 1.16 | 11.2 | 6.75
SPRNP1 (shadow of prion protein pseudogene 1) | SID160733301 | -0.6 | -1.25 | 4.27
SPRNP1 (shadow of prion protein pseudogene 1) | SID160766872 | 2.54 | 20.9 | 11.4
SPRNP1 (shadow of prion protein pseudogene 1) | SID160766873 | 0.548 | 6.82 | 6.22
VSX1 (visual system homeobox 1) | SID160724394 | 6.7 (active) | 50.1 | 28.7
VSX1 (visual system homeobox 1) | SID160724395 | -0.0887 | 2.34 | 5.11
VSX1 (visual system homeobox 1) | SID160727912 | 1.02 | 10.1 | 7.68
PPP2R1B (protein phosphatase 2 scaffold subunit Abeta) | SID160714792 | -0.496 | -0.525 | 4.62
PPP2R1B (protein phosphatase 2 scaffold subunit Abeta) | SID160714793 | 0.602 | 7.2 | 6.47
PPP2R1B (protein phosphatase 2 scaffold subunit Abeta) | SID160714794 | -0.613 | -1.35 | 3.09
SLC35A1 | SID160728728 | -0.484 | -0.44 | 5.5
SLC35A1 | SID160728729 | 5.15 (active) | 39.2 | 16.5
SLC35A1 | SID160728730 | 1.78 | 15.5 | 12.6
NKX2-2 (NK2 homeobox 2) | SID160778087 | 0.0971 | 3.65 | 6.77
NKX2-2 (NK2 homeobox 2) | SID160778088 | -0.561 | -0.983 | 2.87
NKX2-2 (NK2 homeobox 2) | SID160778089 | 1.71 | 15 | 11.4
GOLGA6L10 (golgin A6 family like 10) | SID160726007 | -0.134 | 2.02 | 4.54
GOLGA6L10 (golgin A6 family like 10) | SID160726008 | 0.502 | 6.5 | 5.63
GOLGA6L10 (golgin A6 family like 10) | SID160726009 | 2.04 | 17.3 | 8.54
